Source: the supplement of paper PMC8728848
The list shows a part of the results.

Key:
Test in all cases: glycan array binding signal (z-score within array); higher = stronger binding
Settings in all cases: glycan notation: IUPAC condensed, linker removed
[1] = target: Fuc(a1-3)GlcNAc
Outline: (§1)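 Negative Z-scores can be read as non-binding. The Z-score is calculated within each array and then averaged across arrays of one protein sequence at different concentrations or buffers and across linkers. Arrays, 3228 in all, were curated from the Consortium for Functional Glycomics database and kept only where the protein sequence was available.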

[2] = target: Fuc(a1-3)[Gal(b1-4)]Glc6S
Outline: as §1

[3] = target: Fuc(a1-3)[Gal(b1-4)]GlcNAc
Outline: as §1

[4] = target: Fuc(a1-3)[Gal(b1-4)]GlcNAc(b1-2)Man
Outline: as §1

[5] = target: Fuc(a1-3)[Gal(b1-4)]GlcNAc(b1-2)Man(a1-3)[Fuc(a1-3)[Gal(b1-4)]GlcNAc(b1-2)Man(a1-6)]Man(b1-4)GlcNAc(b1-4)GlcNAc
Outline: as §1

[6] = target: Fuc(a1-3)[Gal(b1-4)]GlcNAc(b1-2)Man(a1-3)[Fuc(a1-3)[Gal(b1-4)]GlcNAc(b1-2)Man(a1-6)]Man(b1-4)GlcNAc(b1-4)[Fuc(a1-6)]GlcNAc
Outline: as §1

[7] = target: Fuc(a1-3)[Gal(b1-4)]GlcNAc(b1-3)Gal(b1-3)[Fuc(a1-4)]GlcNAc
Outline: as §1

[8] = target: Fuc(a1-3)[Gal(b1-4)]GlcNAc(b1-3)Gal(b1-4)[Fuc(a1-3)]GlcNAc
Outline: as §1

[9] = target: Fuc(a1-3)[Gal(b1-4)]GlcNAc(b1-3)Gal(b1-4)[Fuc(a1-3)]GlcNAc(b1-3)Gal(b1-4)[Fuc(a1-3)]GlcNAc
Outline: as §1

[10] = target: Fuc(a1-3)[Gal(b1-4)]GlcNAc(b1-3)GalNAc
Outline: as §1

[11] = target: Fuc(a1-3)[Gal(b1-4)]GlcNAc(b1-6)GalNAc
Outline: as §1

[12] = target: Fuc(a1-3)[Gal(b1-4)]GlcNAc(b1-6)[Gal(b1-3)GlcNAc(b1-3)]Gal(b1-4)Glc
Outline: as §1

[13] = target: Fuc(a1-3)[Gal(b1-4)]GlcNAc6S
Outline: as §1

[14] = target: Fuc(a1-3)[Gal3S(b1-4)]Glc
Outline: as §1

[15] = target: Fuc(a1-3)[Gal3S(b1-4)]GlcNAc
Outline: as §1

[16] = target: Fuc(a1-3)[Gal3S(b1-4)]GlcNAc6S
Outline: as §1

[17] = target: Fuc(a1-3)[GalNAc(b1-4)]GlcNAc
Outline: as §1

[18] = target: Fuc(a1-3)[GalNAc(b1-4)]GlcNAc6S
Outline: as §1

[19] = target: Fuc(a1-4)GlcNAc
Outline: as §1

[20] = target: Fuc(b1-3)GlcNAc
Outline: as §1

[21] = target: Gal(a1-2)Gal
Outline: as §1

[22] = target: Gal(a1-3)Gal
Outline: as §1

[23] = target: Gal(a1-3)Gal(b1-3)GlcNAc
Outline: as §1

[24] = target: Gal(a1-3)Gal(b1-3)GlcNAc(b1-2)Man
Outline: as §1

[25] = target: Gal(a1-3)Gal(b1-3)GlcNAc(b1-2)Man(a1-3)[Gal(a1-3)Gal(b1-3)GlcNAc(b1-2)Man(a1-6)]Man(b1-4)GlcNAc(b1-4)GlcNAc
Outline: as §1

[26] = target: Gal(a1-3)Gal(b1-3)GlcNAc(b1-3)GalNAc
Outline: as §1

[27] = target: Gal(a1-3)Gal(b1-3)GlcNAc(b1-6)GalNAc
Outline: as §1

[28] = target: Gal(a1-3)Gal(b1-3)[Fuc(a1-4)]GlcNAc(b1-2)Man(a1-3)[Gal(a1-3)Gal(b1-3)[Fuc(a1-4)]GlcNAc(b1-2)Man(a1-6)]Man(b1-4)GlcNAc(b1-4)GlcNAc
Outline: as §1

[29] = target: Gal(a1-3)Gal(b1-4)Glc
Outline: as §1

[30] = target: Gal(a1-3)Gal(b1-4)GlcNAc
Outline: as §1

[31] = target: Gal(a1-3)Gal(b1-4)GlcNAc(b1-2)Man
Outline: as §1

[32] = target: Gal(a1-3)Gal(b1-4)GlcNAc(b1-2)Man(a1-3)[Gal(a1-3)Gal(b1-4)GlcNAc(b1-2)Man(a1-6)]Man(b1-4)GlcNAc(b1-4)GlcNAc
Outline: as §1

[33] = target: Gal(a1-3)Gal(b1-4)GlcNAc(b1-3)GalNAc
Outline: as §1

[34] = target: Gal(a1-3)Gal(b1-4)GlcNAc(b1-6)GalNAc
Outline: as §1

[35] = target: Gal(a1-3)Gal(b1-4)[Fuc(a1-3)]GlcNAc
Outline: as §1

[36] = target: Gal(a1-3)Gal(b1-4)[Fuc(a1-3)]GlcNAc(b1-2)Man(a1-3)[Gal(a1-3)Gal(b1-4)[Fuc(a1-3)]GlcNAc(b1-2)Man(a1-6)]Man(b1-4)GlcNAc(b1-4)GlcNAc
Outline: as §1

[37] = target: Gal(a1-3)GalNAc
Outline: as §1

[38] = target: Gal(a1-3)[Gal(a1-4)]Gal(b1-4)GlcNAc
Outline: as §1

[39] = target: Gal(a1-4)Gal(b1-3)GlcNAc(b1-2)Man(a1-3)[Gal(a1-4)Gal(b1-3)GlcNAc(b1-2)Man(a1-6)]Man(b1-4)GlcNAc(b1-4)GlcNAc
Outline: as §1

[40] = target: Gal(a1-4)Gal(b1-4)Glc
Outline: as §1

[41] = target: Gal(a1-4)Gal(b1-4)GlcNAc
Outline: as §1

[42] = target: Gal(a1-4)Gal(b1-4)GlcNAc(b1-2)Man(a1-3)[Gal(a1-4)Gal(b1-4)GlcNAc(b1-2)Man(a1-6)]Man(b1-4)GlcNAc(b1-4)GlcNAc
Outline: as §1

[43] = target: Gal(a1-4)Gal(b1-4)GlcNAc(b1-3)Gal(b1-4)Glc
Outline: as §1

[44] = target: Gal(a1-4)GlcNAc
Outline: as §1

[45] = target: Gal(a1-6)Glc
Outline: as §1

B1: Aap arpt (Staphylococcus epidermidis) (protein)
chain: NNEAPQMSSTLQAEEGSNAEAPQSEPTKAEEGGNAEAAQSEPTKAEEGGNAEAPQSEPTKAEEGGNAEAAQSEPTKTEEGSNVKAAQSEPTKAEEGSNAEAPQSEPTKTEEGSNAKAAQSEPTKAEEGGNAEAAQSEPTKTEEGSNAEAPQSEPTKAEEGGYAEAPQSEPTKTEEGGNAEAPNVPTIKA
[1]
  glycan array binding signal (z-score): -0.294
[2]
  glycan array binding signal (z-score): -0.246
[3]
  glycan array binding signal (z-score): -0.92
[4]
  glycan array binding signal (z-score): -0.688
[5]
  glycan array binding signal (z-score): -1.43
[6]
  glycan array binding signal (z-score): 0.767
[7]
  glycan array binding signal (z-score): 0.763
[8]
  glycan array binding signal (z-score): 1.48
[9]
  glycan array binding signal (z-score): 0.278
[10]
  glycan array binding signal (z-score): -0.131
[11]
  glycan array binding signal (z-score): 0.096
[12]
  glycan array binding signal (z-score): -0.249
[13]
  glycan array binding signal (z-score): -0.319
[14]
  glycan array binding signal (z-score): -0.238
[15]
  glycan array binding signal (z-score): 0.27
[16]
  glycan array binding signal (z-score): -0.38
[17]
  glycan array binding signal (z-score): -0.157
[18]
  glycan array binding signal (z-score): 0.246
[19]
  glycan array binding signal (z-score): 0.688
[20]
  glycan array binding signal (z-score): -0.03
[21]
  glycan array binding signal (z-score): 0.231
[22]
  glycan array binding signal (z-score): 0.867
[23]
  glycan array binding signal (z-score): -0.659
[24]
  glycan array binding signal (z-score): -0.261
[25]
  glycan array binding signal (z-score): 1.03
[26]
  glycan array binding signal (z-score): 0.863
[27]
  glycan array binding signal (z-score): -0.773
[28]
  glycan array binding signal (z-score): 0.296
[29]
  glycan array binding signal (z-score): 0.127
[30]
  glycan array binding signal (z-score): -0.688
[31]
  glycan array binding signal (z-score): 0.07
[32]
  glycan array binding signal (z-score): -0.946
[33]
  glycan array binding signal (z-score): 0.34
[34]
  glycan array binding signal (z-score): 3.25
[35]
  glycan array binding signal (z-score): -1.04
[36]
  glycan array binding signal (z-score): -0.232
[37]
  glycan array binding signal (z-score): -0.699
[38]
  glycan array binding signal (z-score): -0.562
[39]
  glycan array binding signal (z-score): -0.328
[40]
  glycan array binding signal (z-score): 0.092
[41]
  glycan array binding signal (z-score): -0.634
[42]
  glycan array binding signal (z-score): 0.476
[43]
  glycan array binding signal (z-score): 0.169
[44]
  glycan array binding signal (z-score): -1.01
[45]
  glycan array binding signal (z-score): -0.445
